Data reported in PMC5595929.
No constants are given. Whether binding was seen depends on the method and setting. Binding seen in cells or lysates may run through a third protein. Some binding calls cover weakened binding; strength is not graded here. Sequences can lack the tags named with a protein.

Amino acid sequences for entries named in this document (tags omitted). A change or cut given only in a name is not applied to a line headed by its entry.
UniProt P21860: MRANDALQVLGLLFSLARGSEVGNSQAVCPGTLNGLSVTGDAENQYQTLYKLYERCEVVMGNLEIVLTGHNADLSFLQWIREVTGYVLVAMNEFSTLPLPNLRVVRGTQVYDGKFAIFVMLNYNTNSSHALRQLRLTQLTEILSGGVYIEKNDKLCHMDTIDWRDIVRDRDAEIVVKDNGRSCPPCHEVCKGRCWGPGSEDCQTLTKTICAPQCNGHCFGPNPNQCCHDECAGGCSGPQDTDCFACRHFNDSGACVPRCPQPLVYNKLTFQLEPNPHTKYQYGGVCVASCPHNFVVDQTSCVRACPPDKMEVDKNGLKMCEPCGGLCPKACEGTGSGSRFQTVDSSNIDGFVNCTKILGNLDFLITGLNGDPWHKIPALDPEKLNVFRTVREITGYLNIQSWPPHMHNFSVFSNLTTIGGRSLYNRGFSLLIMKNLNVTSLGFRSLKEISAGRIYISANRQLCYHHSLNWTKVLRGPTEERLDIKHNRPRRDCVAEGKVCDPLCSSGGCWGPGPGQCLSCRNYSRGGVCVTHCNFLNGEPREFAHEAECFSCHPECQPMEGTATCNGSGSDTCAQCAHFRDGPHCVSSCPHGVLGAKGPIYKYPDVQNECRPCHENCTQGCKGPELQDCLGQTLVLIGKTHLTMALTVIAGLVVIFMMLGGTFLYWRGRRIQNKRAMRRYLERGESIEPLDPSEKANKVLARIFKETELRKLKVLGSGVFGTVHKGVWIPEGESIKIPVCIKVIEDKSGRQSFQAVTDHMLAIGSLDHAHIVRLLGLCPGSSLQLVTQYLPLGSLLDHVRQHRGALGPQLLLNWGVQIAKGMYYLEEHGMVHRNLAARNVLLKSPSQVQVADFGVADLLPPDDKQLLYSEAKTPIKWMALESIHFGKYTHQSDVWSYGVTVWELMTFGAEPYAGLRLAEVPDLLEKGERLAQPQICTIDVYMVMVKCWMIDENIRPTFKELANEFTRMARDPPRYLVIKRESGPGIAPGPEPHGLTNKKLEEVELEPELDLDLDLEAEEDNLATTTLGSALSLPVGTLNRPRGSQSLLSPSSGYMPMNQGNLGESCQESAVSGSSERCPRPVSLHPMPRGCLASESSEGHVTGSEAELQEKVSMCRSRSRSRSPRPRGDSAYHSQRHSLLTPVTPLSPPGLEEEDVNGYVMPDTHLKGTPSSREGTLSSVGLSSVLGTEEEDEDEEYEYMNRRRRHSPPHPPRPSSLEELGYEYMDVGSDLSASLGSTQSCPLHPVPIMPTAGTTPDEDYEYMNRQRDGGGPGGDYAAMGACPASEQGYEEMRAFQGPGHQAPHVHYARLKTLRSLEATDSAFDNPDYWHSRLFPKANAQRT

Experiments:
[1] = target: T1, FLAG-tagged Necl-4 (nectin-like molecule-4/cell adhesion molecule 4) (UniProt Q8NFZ8); assay: co-IP; HEK293E cells co-transfected; FLAG-Necl-4 constructs precipitated with the anti-FLAG mAb, ErbB3-GFP constructs detected by blot; cells starved of serum and cultured with or without HRG (Fig. 2a), cultured in suspension (Fig. 5a); lysis buffer 20 mM Tris-HCl pH 7.5, 1% Nonidet P-40, 150 mM NaCl; beads 4 °C, 2 h
T1 sequence: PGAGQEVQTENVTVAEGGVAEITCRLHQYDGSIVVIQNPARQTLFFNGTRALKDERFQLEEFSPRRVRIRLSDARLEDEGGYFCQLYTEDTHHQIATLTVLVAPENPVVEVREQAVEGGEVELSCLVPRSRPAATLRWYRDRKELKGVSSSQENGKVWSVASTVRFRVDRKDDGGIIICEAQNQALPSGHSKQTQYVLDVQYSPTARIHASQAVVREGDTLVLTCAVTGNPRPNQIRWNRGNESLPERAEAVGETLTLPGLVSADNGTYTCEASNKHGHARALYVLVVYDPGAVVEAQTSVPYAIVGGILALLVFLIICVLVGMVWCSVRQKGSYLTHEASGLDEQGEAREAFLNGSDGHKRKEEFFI

[2] = target: T2, FLAG-Necl-4-Ig3-TM, the third Ig-like domain of Necl-4 with transmembrane region (UniProt Q8NFZ8); assay: as above
T2 sequence: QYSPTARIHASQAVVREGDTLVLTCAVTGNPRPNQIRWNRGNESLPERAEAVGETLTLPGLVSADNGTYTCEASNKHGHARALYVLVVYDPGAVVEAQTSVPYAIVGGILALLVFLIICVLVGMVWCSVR

[3] = target: ErbB3 mutant in which the cytoplasmic region and the domain 1 were deleted (GFP-tagged) (human) (UniProt P21860); assay: co-IP; reciprocal: HEK293E cells co-transfected; ErbB3-GFP and its mutants precipitated with the anti-GFP pAb, FLAG-Necl-4 detected by blot (Fig. 5b cells in suspension; Fig. 2c)
[4] = target: ErbB3 mutant in which the cytoplasmic region and the domains 1, 2, and 3 were deleted (GFP-tagged) (human) (UniProt P21860); assay: as above
[5] = target: GFP-tagged ErbB3 (human) (UniProt P21860); assay: as above
[6] = target: ErbB3 mutant in which the cytoplasmic region and the domains 1 and 2 were deleted (GFP-tagged) (human) (UniProt P21860); assay: as above

ErbB3 mutant in which the cytoplasmic region and the domain 1 were deleted (GFP-tagged) (from UniProt P21860 184-708) (domain or fragment)
binding [1]: binds

ErbB3 mutant in which the cytoplasmic region and the domains 1 and 2 were deleted (GFP-tagged) (from UniProt P21860 328-708) (domain or fragment)
binding [1]: binds

ErbB3 mutant in which the cytoplasmic region and the domains 1, 2, and 3 were deleted (GFP-tagged) (from UniProt P21860 472-708) (domain or fragment)
binding [1]: binds weakly

GFP-tagged ErbB3 (from UniProt P21860 20-1342) (receptor)
binding [2]: binds
binding [1]: binds

B1: FLAG-tagged Necl-4 (nectin-like molecule-4/cell adhesion molecule 4) (protein, UniProt Q8NFZ8 21-388)
chain: PGAGQEVQTENVTVAEGGVAEITCRLHQYDGSIVVIQNPARQTLFFNGTRALKDERFQLEEFSPRRVRIRLSDARLEDEGGYFCQLYTEDTHHQIATLTVLVAPENPVVEVREQAVEGGEVELSCLVPRSRPAATLRWYRDRKELKGVSSSQENGKVWSVASTVRFRVDRKDDGGIIICEAQNQALPSGHSKQTQYVLDVQYSPTARIHASQAVVREGDTLVLTCAVTGNPRPNQIRWNRGNESLPERAEAVGETLTLPGLVSADNGTYTCEASNKHGHARALYVLVVYDPGAVVEAQTSVPYAIVGGILALLVFLIICVLVGMVWCSVRQKGSYLTHEASGLDEQGEAREAFLNGSDGHKRKEEFFI
binding [3]: binds
binding [4]: binds weakly
binding [5]: binds
binding [6]: binds
